Experimental data: the supplement of paper PMC6078165
± gives the standard deviation of the averaged measurements. Values are relative to the signal before dosing, not to a vehicle control; the signal also falls without drug.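 Labels refer to human fibroblasts, largely primary: uterine (C12385, HUF), lung (H6013), bone (Hs27A), adrenal (HADF), skin (WS1), plus mammary HMF and breast cancer-associated Hs343T. Cancer lines are basal-like or mesenchymal-like triple-negative breast cancer. The paper counts as hits responses shifting over 3x the replicate standard deviation. The tissue of the other fibroblasts is not given here.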

Tested on: MDAMB468
Assay: relative JC-1 red fluorescence (viability) vs pre-drug, coculture with fibroblast (fraction); higher = more viable cancer cells
Settings: 0.1 µM
Experimental: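 JC-1 labelled TNBC cells cocultured 1:1 (1,500 cells each) with CellTrace Violet stained primary or stromal fibroblasts in 384-well plates in FluoroBrite medium, treated with one of 42 anticancer drugs at 0.1, 1, 10 or 100 uM. JC-1 red fluorescence (mitochondrial integrity in cancer cells only) was read by plate reader every 8 h for 72 h. Values are normalised to each well's pre-drug value. The stock of one drug was tenfold lower, so its dose labels may be too high.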

COc1cc([C@@H]2c3cc4c(cc3[C@@H](O[C@@H]3O[C@@H]5CO[C@@H](c6cccs6)O[C@H]5[C@H](O)[C@H]3O)[C@H]3COC(=O)[C@H]23)OCO4)cc(OC)c1O [Teniposide]
relative JC-1 red fluorescence
Settings	8 h	16 h	24 h	32 h	40 h	48 h	56 h	64 h	72 h
coculture fibroblast: C12385	0.84337 ± 0.00015	0.847 ± 0.032	0.826 ± 0.074	0.778 ± 0.096	0.74 ± 0.1	0.736 ± 0.13	0.703 ± 0.15	0.694 ± 0.16	0.69 ± 0.17
coculture fibroblast: H6013	0.857 ± 0.012	0.846 ± 0.026	0.8 ± 0.033	0.783 ± 0.016	0.738 ± 0.037	0.748 ± 0.044	0.714 ± 0.05	0.693 ± 0.07	0.651 ± 0.069
coculture fibroblast: H6019	0.83 ± 0.03	0.802 ± 0.014	0.7726 ± 0.0054	0.727 ± 0.0006	0.6965 ± 0.0066	0.6916 ± 0.0033	0.641 ± 0.011	0.618 ± 0.013	0.603 ± 0.015
coculture fibroblast: H6076	0.911 ± 0.015	0.9248 ± 0.0038	0.8675 ± 0.006	0.863 ± 0.011	0.7954 ± 0.00095	0.7886 ± 0.0037	0.759 ± 0.019	0.744 ± 0.015	0.802 ± 0.034
coculture fibroblast: H6231	0.813 ± 0.051	0.9049 ± 0.0022	0.8454 ± 0.00092	0.844 ± 0.027	0.784 ± 0.02	0.755 ± 0.016	0.697 ± 0.026	0.67 ± 0.022	0.659 ± 0.034
coculture fibroblast: HADF	0.847 ± 0.022	0.843 ± 0.033	0.781 ± 0.03	0.767 ± 0.036	0.722 ± 0.033	0.719 ± 0.03	0.682 ± 0.036	0.67 ± 0.044	0.632 ± 0.041
coculture fibroblast: HCFa	0.85707 ± 0.00015	0.835 ± 0.009	0.787 ± 0.0096	0.76 ± 0.021	0.701 ± 0.017	0.688 ± 0.018	0.637 ± 0.022	0.604 ± 0.017	0.552 ± 0.011
coculture fibroblast: HCPF	0.8375 ± 0.0038	0.908 ± 0.015	0.83 ± 0.026	0.828 ± 0.0093	0.76 ± 0.015	0.7363 ± 0.0067	0.6763 ± 0.0036	0.666 ± 0.01	0.654 ± 0.022
coculture fibroblast: HHSteC	0.873 ± 0.023	0.853 ± 0.02	0.799 ± 0.041	0.764 ± 0.045	0.722 ± 0.027	0.711 ± 0.025	0.654 ± 0.029	0.633 ± 0.025	0.582 ± 0.026
coculture fibroblast: HMF	0.821 ± 0.017	0.9132 ± 0.0075	0.866 ± 0.021	0.842 ± 0.015	0.763 ± 0.026	0.736 ± 0.041	0.703 ± 0.036	0.69 ± 0.036	0.68 ± 0.022
coculture fibroblast: HPFa	0.94 ± 0.05	0.909 ± 0.019	0.892 ± 0.042	0.827 ± 0.036	0.807 ± 0.029	0.801 ± 0.024	0.755 ± 0.036	0.731 ± 0.037	0.649 ± 0.03
coculture fibroblast: HUF	0.857 ± 0.011	0.8361 ± 0.0018	0.792 ± 0.015	0.734 ± 0.024	0.701 ± 0.033	0.688 ± 0.036	0.655 ± 0.043	0.647 ± 0.03	0.637 ± 0.038
coculture fibroblast: Hs5	0.955 ± 0.023	0.93 ± 0.032	0.909 ± 0.021	0.8953 ± 0.0052	0.823 ± 0.0098	0.7992 ± 0.0028	0.7711 ± 0.0015	0.735 ± 0.013	0.771 ± 0.022
coculture fibroblast: Hs27A	0.848 ± 0.0098	0.847 ± 0.015	0.7854 ± 0.0078	0.76993 ± 0.00025	0.715 ± 0.0097	0.721 ± 0.021	0.693 ± 0.015	0.683 ± 0.023	0.64 ± 0.025
coculture fibroblast: Hs343T	0.8552 ± 0.0069	0.898 ± 0.069	0.841 ± 0.091	0.832 ± 0.065	0.762 ± 0.065	0.759 ± 0.076	0.721 ± 0.054	0.712 ± 0.04	0.697 ± 0.034
coculture fibroblast: WS1	0.8289 ± 0.0034	0.784 ± 0.018	0.749 ± 0.046	0.686 ± 0.057	0.648 ± 0.05	0.627 ± 0.049	0.61 ± 0.054	0.595 ± 0.045	0.594 ± 0.056
